According to patent publication US7544661 (NORTHWESTERN UNIVERSITY, dated 2009):
Results are given in words; binding and its absence hold for the method and conditions named. Some entries that bind do so weakly or less than the wild type.

By UniProt entry, the sequences of proteins in these tests, tags left out. Where a name states a change or a piece, a line headed by the entry shows the natural chain unless it says otherwise. Chains listed by the source or under a name are the forms on record and can include a tag or linker. Residues count along the entry.
vascular endothelial growth factor (P15692, form named): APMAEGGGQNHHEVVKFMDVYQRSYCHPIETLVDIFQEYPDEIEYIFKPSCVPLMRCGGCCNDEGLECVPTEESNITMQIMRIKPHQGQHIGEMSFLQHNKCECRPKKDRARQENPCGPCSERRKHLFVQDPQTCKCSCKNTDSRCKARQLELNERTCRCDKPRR
UniProt P09038, residues 135-288: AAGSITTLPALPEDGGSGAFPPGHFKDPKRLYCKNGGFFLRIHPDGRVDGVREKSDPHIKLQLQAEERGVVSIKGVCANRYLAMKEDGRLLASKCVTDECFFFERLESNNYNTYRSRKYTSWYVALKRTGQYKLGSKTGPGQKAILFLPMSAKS

T1: neurotrophin-3 (UniProt P20783)
T1 sequence (looked up): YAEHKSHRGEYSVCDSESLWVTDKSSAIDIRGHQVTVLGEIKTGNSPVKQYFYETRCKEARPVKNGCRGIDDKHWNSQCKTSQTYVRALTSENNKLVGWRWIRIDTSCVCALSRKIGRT


Tests used:
[1] = target: vascular endothelial growth factor (UniProt P15692); assay: phage display, 7-mer kit; listed as binding sequence for VEGF
[2] = target: vascular endothelial growth factor (UniProt P15692); assay: phage display, 12-mer kit; listed as binding sequence for VEGF; * denotes the strongest binders
[3] = target: vascular endothelial growth factor (UniProt P15692); assay: phage display, 12-mer kit; listed as binding sequence for VEGF
[4] = target: basic fibroblast growth factor (UniProt P09038); assay: phage display; listed as binding sequence for FGF-2
neurotrophin-3 = target: T1, neurotrophin-3; assay: phage display; listed as binding sequence for NT-3

Binder	binding [1]	binding [4]	further results
WPTWVNN	binds	–	–
YYTVHHM	binds	–	–
VSILSTIPNSMT	–	–	binding [2]: binds
WHWSLNH	binds	–	–
PLTPSALLPIFE	–	–	binding [2]: binds
SWWAPFH	binds	–	–
LPQKNTIQYEKM	–	–	binding [3]: binds
FTEPLAS	binds	–	–
THAFRVM	binds	–	–
ASLFSSN	binds	–	–
LLTVSSY	binds	–	–
LPYPHYH	binds	–	–
PMHHHKH	–	binds	–
AQVRSGD	–	binds	–
KHPPTNW	–	binds	–
AMLSHLS	–	binds	–
DFIQPYQ	–	binds	–
VYWSRIE	–	binds	–
AMPQRPL	–	binds	–
HSRHFHH	–	binds	–
RMTQVPL	–	binds	–
LSTPPLR	–	binds	–
HTTEILH	–	–	binding (neurotrophin-3): binds
SYFPSSA	–	–	binding (neurotrophin-3): binds
EARQSYS	–	–	binding (neurotrophin-3): binds
DEPQKAH	–	–	binding (neurotrophin-3): binds
TLGLGLH	–	–	binding (neurotrophin-3): binds
YMRRSLS	–	–	binding (neurotrophin-3): binds
VVLYLPL	–	–	binding (neurotrophin-3): binds
